At least one structure is not confirmed: it was looked up by name or label, or the drawing left a doubt.
Legend:
9C9H9 mAb (anti-OTA mAb) [1] = test: indirect competitive ELISA (ciELISA); format: binding, mouse; details: at a concentration as high as 100 μg/mL
Protocol: (§1) Both the cdELISA (direct competitive ELISA) and ciELISA (indirect competitive ELISA) were used to determine the specificity of 9C9H9 mAb.
Indirect Competitive ELISA was than used to characterize each mAb. Briefly, each well of a microtiter plate was coated with 0.1 mL of the OTA-OVA and kept at 4° C. overnight. After the plate had been washed four times with Tween-PBS (0.35 mL/well; 0.05% Tween 20 in PBS) using an automated ELISA washer, 0.17 mL of gelatin-PBS (0.17 mL/well; 0.1% gelatin in PBS) was added and allowed to incubate at 37° C. for 30 min. The plate was washed again and 0.05 mL of OTA standard with concentrations from 0.01 to 100 ng/mL or extracted samples (0.05 mL/well in PBS) were added to each well, and then the anti-OTA mAb (25 ng/mL in PBS, 0.05 mL/well) was added to all wells and incubated at 37° C. for 50 min. After incubation, the plate was washed four times with Tween-PBS, and 0.1 mL of goat antimouse IgG-HRP conjugate (1:20000 dilution) was added and incubated at 37° C. for 45 min. The plate was washed four times with Tween-PBS, and 0.1 mL of TMB substrate solution was added. After 10 min of incubation at room temperature, 0.1 mL of 1 N hydrochloric acid was added to stop the reaction. Absorbance at 450 nm was determined in a Vmax automatic ELISA reader.

9C9H9 mAb (anti-OTA mAb) [2] = test: direct competitive ELISA (cdELISA); format: binding, mouse; details: at a concentration as high as 100 μg/mL
Protocol: as §1
Another ELISA method (direct competitive ELISA) was used to characterize mAb. The rabbit anti-mouse-Fc antibody was diluted in PBS (2 μg/mL), and 0.1 mL of the diluted form was coated onto each well. After incubation at 37° C. for 1 h and washing with Tween-PBS. The anti-OTA mAb supernatant was diluted in PBS (5 μg/mL) and 0.1 mL of the diluted form was used to coat each well. After the plate had been incubated at 4° C. overnight, it was washed with Tween-PBS followed by blocking with gelatin-PBS at 37° C. for 30 min. The plate was washed again with Tween-PBS four times, and then OTA standard (0.05 mL/well in PBS) concentrations from 0.01 to 100 ng/mL or samples together with the OTA-HRP conjugate (30 ng/mL, in PBS, 0.05 mL/well) were added and incubated at 37° C. for 50 min. The plate was washed four times with PBS-Tween, and 0.1 mL of TMB substrate solution was added. After incubation at room temperature in the dark for 10 min, the reaction was terminated by adding 0.1 mL of 1 N HCl. The absorbance at 450 nm was determined in the Vmax automatic ELISA reader.

SMILES: CC1=C2C(=CO[C@H](C)[C@H]2C)C(O)=C(C(=O)O)C1=O [citrinin]
- inhibition of the binding of mAb to the marker antigen (OTA-OVA) (9C9H9 mAb (anti-OTA mAb) [1]): did not inhibit
- inhibition of the binding of mAb to the marker antigen (OTA-HRP) (9C9H9 mAb (anti-OTA mAb) [2]): did not inhibit

Reference: patent US8003766B2, “Monoclonal antibody specific to ochratoxin A” (priority 2009, dated 2011)
